PubChem BioAssay AID1259308, NCATS – 2017

Assay: 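Genes whose loss raises luciferase production in HEK293 cells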 (primary screen)
Cells: human HEK293 embryonic kidney cells stably expressing firefly luciferase (HEK-CMV-Luc2-Hygro)
Reagents: single siRNA against human genes, 0.8 pmol siRNA per well
Time to read-out: 72 h
Measured: 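Luciferase light (ONE-Glo) measured on one replicate plate set and viability (CellTiter-Glo) on the other, scaled to a negative control siRNA, with robust z-scores and luciferase per cell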
Direction: total luciferase, z-score: higher = more reporter protein produced
Call rule: 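Active when the median/MAD z-score for overall luciferase is greater than 3; a gene was taken forward for validation with new siRNAs if at least two of its three siRNAs passed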
Meaning of the calls: active = raised luciferase; inactive = no rise
Here is a random part of about 59,000 reagents tested. About 1,510 of them (2.6%) count as active. 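Calls use total luciferase alone and ignore viability, so some active siRNAs may act by altering cell number.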 Entries without a mark were called inactive. Reagents against one gene are numbered here. Further read-outs or replicates are left out here.

total luciferase, z-score, by target and reagent
NTM (neurotrimin): #1 -2.27; #2 -1.14; #3 0.155
LINC02873 (long independently transcribed non-coding RNA 2873): #1 1.03; #2 0.549; #3 1.76
COX6A1 (cytochrome c oxidase subunit 6A1): #1 0.524; #2 1.37; #3 0.488
DAB1 (DAB adaptor protein 1): #1 -2.77; #2 1.53; #3 0.883
POLR3F (RNA polymerase III subunit F): #1 1.5; #2 -1.62; #3 0.464
OR10G2 (olfactory receptor family 10 subfamily G member 2): #1 -0.771; #2 0.708; #3 1.44
PERP (p53 apoptosis effector related to PMP22): #1 -1.2; #2 0.952; #3 -0.0404
MECP2 (methyl-CpG binding protein 2): #1 0.713; #2 1.07; #3 -0.194
P2RY14 (purinergic receptor P2Y14): #1 0.487; #2 0.0383; #3 -1.36

Individual results from the list:
Under “total luciferase, z-score”, MECP2 (methyl-CpG binding protein 2) #1 is entered as 0.713
Value of POLR3F (RNA polymerase III subunit F) #2 under “total luciferase, z-score”: -1.62
Value for LINC02873 (long independently transcribed non-coding RNA 2873) #1 in “total luciferase, z-score”: 1.03
Value of DAB1 (DAB adaptor protein 1) #1 under “total luciferase, z-score”: -2.77

Next entries follow.
total luciferase, z-score, by target and reagent
HSPB3 (heat shock protein family B (small) member 3): #1 0.572; #2 -0.413; #3 1.77
SPTAN1 (spectrin alpha, non-erythrocytic 1): #1 -0.697; #2 -1.44; #3 0.558
CHL1 (cell adhesion molecule L1 like): #1 0.619; #2 -0.635; #3 0.187
EAF1 (ELL associated factor 1): #1 -1.46; #2 -1.09; #3 -1.4
SH2D4B (SH2 domain containing 4B): #1 0.834; #2 -0.106; #3 0.414
CT83 (cancer/testis antigen 83): #1 0.535; #2 2.16; #3 1.13
DHRS12 (dehydrogenase/reductase 12): #1 -0.438; #2 3.46 (active); #3 -0.159
SOS2 (SOS Ras/Rho guanine nucleotide exchange factor 2): #1 0.474; #2 0.385; #3 1.48
SIKE1 (suppressor of IKBKE 1): #1 -1.42; #2 -0.26; #3 4.7 (active)
DEXI (Dexi homolog): #1 -0.465; #2 1.6; #3 -0.663
